Test results: publication PMC5996148
Values joined by “and” are separate entries in the source; they are usually repeats but may differ in a detail not shown here. Identical values can stand only once. Some of the results follow. For some assays here: The exact form of the protein is not confirmed.

Amino acid sequences for entries named in this document (tags omitted). A change or cut given only in a name is not applied to a line headed by its entry.
UniProt P14625, whole entry: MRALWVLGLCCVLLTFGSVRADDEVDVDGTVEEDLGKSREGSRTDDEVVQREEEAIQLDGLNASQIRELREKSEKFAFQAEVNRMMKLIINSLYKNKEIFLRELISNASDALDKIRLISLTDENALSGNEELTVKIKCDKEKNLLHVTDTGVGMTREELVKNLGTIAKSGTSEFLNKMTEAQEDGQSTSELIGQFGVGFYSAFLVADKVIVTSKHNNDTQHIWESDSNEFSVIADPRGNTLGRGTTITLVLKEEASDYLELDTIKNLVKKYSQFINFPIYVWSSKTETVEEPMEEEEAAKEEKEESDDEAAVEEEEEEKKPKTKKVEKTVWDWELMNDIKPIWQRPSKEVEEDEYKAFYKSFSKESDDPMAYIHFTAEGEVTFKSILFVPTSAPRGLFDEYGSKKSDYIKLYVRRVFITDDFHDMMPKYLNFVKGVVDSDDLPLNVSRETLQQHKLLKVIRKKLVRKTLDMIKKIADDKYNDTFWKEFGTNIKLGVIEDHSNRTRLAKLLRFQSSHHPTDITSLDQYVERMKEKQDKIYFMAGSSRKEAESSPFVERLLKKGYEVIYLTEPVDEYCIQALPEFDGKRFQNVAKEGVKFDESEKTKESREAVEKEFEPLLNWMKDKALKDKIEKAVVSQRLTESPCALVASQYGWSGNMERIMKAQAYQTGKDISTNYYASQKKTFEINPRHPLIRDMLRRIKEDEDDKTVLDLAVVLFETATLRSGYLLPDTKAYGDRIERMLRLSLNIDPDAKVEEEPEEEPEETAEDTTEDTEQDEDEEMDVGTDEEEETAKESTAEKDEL
UniProt P38646: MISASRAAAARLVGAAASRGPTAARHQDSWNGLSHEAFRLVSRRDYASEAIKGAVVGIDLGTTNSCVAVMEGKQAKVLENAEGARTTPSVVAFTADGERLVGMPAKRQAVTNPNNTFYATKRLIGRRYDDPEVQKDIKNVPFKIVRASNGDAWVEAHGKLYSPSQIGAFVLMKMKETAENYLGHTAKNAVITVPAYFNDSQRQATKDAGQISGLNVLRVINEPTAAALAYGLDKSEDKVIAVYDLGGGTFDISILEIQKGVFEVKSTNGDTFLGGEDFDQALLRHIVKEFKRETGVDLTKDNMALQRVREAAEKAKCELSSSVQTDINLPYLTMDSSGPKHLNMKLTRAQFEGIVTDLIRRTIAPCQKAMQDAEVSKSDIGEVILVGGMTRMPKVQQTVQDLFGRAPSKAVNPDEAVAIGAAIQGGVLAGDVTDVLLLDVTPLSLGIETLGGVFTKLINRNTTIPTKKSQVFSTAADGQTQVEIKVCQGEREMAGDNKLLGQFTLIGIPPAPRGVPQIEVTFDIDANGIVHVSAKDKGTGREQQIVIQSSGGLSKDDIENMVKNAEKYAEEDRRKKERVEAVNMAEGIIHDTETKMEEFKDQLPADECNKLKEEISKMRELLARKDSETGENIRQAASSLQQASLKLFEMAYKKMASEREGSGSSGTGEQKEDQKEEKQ
UniProt Q9BUP3: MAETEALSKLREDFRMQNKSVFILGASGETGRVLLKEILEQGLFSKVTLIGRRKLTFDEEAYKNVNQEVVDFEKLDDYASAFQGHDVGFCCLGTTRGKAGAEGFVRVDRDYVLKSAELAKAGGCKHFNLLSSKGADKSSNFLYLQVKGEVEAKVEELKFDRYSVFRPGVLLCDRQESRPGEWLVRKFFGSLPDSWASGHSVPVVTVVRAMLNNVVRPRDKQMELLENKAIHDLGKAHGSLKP

Tests used:
Test in all cases: protein microarray (ProtoArray v5.0), streptavidin-Alexa Fluor 647
Details in all cases: 3'-biotin; 20 mM Tris (pH 7.5), 5 mM MgCl2, 100 mM KCl, 0.1% Tween-20, A/T-rich and random oligonucleotide blockers; temperature not stated; high values mean tight binding
HSD11B1 (human) = test system: HSD11B1 (human)
HSD17B10 (human) = test system: HSD17B10 (human)
HSD17B8 (human) = test system: HSD17B8 (human)
HSD3B2 (human) = test system: HSD3B2 (human)
HSDL2 (human) = test system: HSDL2 (human)
HSF1 (human) = test system: HSF1 (human)
HSH2D (human) = test system: HSH2D (human)
HSP90B1 = HSP90B1 (UniProt P14625)
HSPA2 (human) = test system: HSPA2 (human)
HSPA4 (human) = test system: HSPA4 (human)
HSPA9 = HSPA9 (UniProt P38646)
HSPBAP1 (human) = test system: HSPBAP1 (human)
HSPBP1 (human) = test system: HSPBP1 (human)
HSPC111 (human) = test system: HSPC111 (human)
HSPC142 (human) = test system: HSPC142 (human)
HSPC152 (human) = test system: HSPC152 (human)
HSPE1 (human) = test system: HSPE1 (human)
HSPH1 (human) = test system: HSPH1 (human)
HTATIP2 = HTATIP2 (UniProt Q9BUP3)
HTR1E (human) = test system: HTR1E (human)

## GGGAGGCTGAGGCAGG [G4-1 biotinylated (PQS2)]
HSD11B1 (human)
  binding signal: -0.338 z-score
HSD17B10 (human)
  binding signal: -0.305 z-score
HSD17B8 (human)
  binding signal: -0.321 z-score
HSD3B2 (human)
  binding signal: -0.326 z-score
HSDL2 (human)
  binding signal: -0.265 z-score
HSF1 (human)
  binding signal: -0.354 z-score
HSH2D (human)
  binding signal: -0.306 z-score
HSP90B1
  binding signal: -0.323 z-score
HSPA2 (human)
  binding signal: -0.246 z-score
HSPA4 (human)
  binding signal: -0.323 z-score
HSPA9
  binding signal: -0.335 z-score
HSPBAP1 (human)
  binding signal: -0.312 z-score and -0.33 z-score
HSPBP1 (human)
  binding signal: -0.372 z-score
HSPC111 (human)
  binding signal: 7.99 z-score
HSPC142 (human)
  binding signal: -0.346 z-score
HSPC152 (human)
  binding signal: -0.326 z-score and -0.297 z-score
HSPE1 (human)
  binding signal: -0.324 z-score
HSPH1 (human)
  binding signal: -0.321 z-score
HTATIP2
  binding signal: -0.344 z-score
HTR1E (human)
  binding signal: -0.299 z-score
